Experimental data taken from PubChem BioAssay AID540256 (National Center for Advancing Translational Sciences (NCATS), 2011).
Values joined by “and” are separate entries in the source; they are usually repeats but may differ in a detail not shown here. Identical values can stand only once. In all, about 300,000 compounds went through this assay and about 3,700 (1.2%) were called active. This list was built around the results that the source calls inconclusive (neither active nor inactive); the mix of calls is not that of the screen. Calls follow the shape of the full dose curve; tested in HEK293 cells. Potencies of inconclusive entries are doubtful fits and often do not repeat.

experiment: qHTS for Inhibitors of binding or entry into cells for Lassa Virus; details: Lassa virus pseudotype entry inhibition, cell reporter; activity change, negative = inhibition: at 37.9 µM (top of the series) unless noted; also: nearly all actives have a fitted effect of over 50% in size
% is scaled to controls: 0 for no effect and ±100 for the full control effect; potency is read from the fitted curve at half-maximal effect.

Compound | Potency | activity change, negative = inhibition
C=C(C)C1CC=C(C)/C(=N/NC(=O)c2ccc(NC(=O)CC)cc2)C1 (stereo unspecified) | inconclusive: 18.3 µM [inhibitor, single point] | 
COc1ccc(CCNC(=O)CCC2COc3ccccc3O2)cc1OC (stereo unspecified) | inconclusive: 5.17 µM [inhibitor, single point] | 
O=C1OC(=O)C2C3CCC(O3)C12 (stereo unspecified) | inconclusive: 14.6 µM [inhibitor, partial curve, poor fit] | 
O=c1c2c(-c3ccccc3)csc2ncn1/N=C/c1cccc([N+](=O)[O-])c1O |  | inactive: -9.33% [at 46.1 µM]
COc1cc(NC(=O)COc2ccc(Br)cc2)ccc1NC(=O)C(C)C | inconclusive: 4.47 µM [inhibitor, full curve, poor fit] | 
O=C(N/N=C/c1ccc(OC(=O)c2ccccc2Cl)cc1)c1ccccn1 | inconclusive: 14.1 µM [inhibitor, partial curve, poor fit] | 
O=C(CCCc1c[nH]c2ccccc12)N1CCN(S(=O)(=O)c2cccs2)CC1 |  | inactive: -28%
Cc1c(Cl)cccc1NC(=O)CN1C(=O)COc2ccc(S(=O)(=O)N3CCCCCC3)cc21 |  | inactive: 6.21% [at 46.1 µM]
O=C(N/N=C/c1ccncc1)c1cccc(N/N=C/c2ccncc2)c1 |  | inactive: 11.9%
O=C(NNC(=O)c1cc2cc(Br)ccc2oc1=O)c1ccc(O)cc1O | inconclusive: 35.5 µM [inhibitor, single point] | 
CCOc1ccccc1NC(=O)c1sc2nc(C)cc(C)c2c1N |  | inactive: 6.5% [at 46.1 µM]
Cc1coc2c(C)c3oc(=O)c(CC(=O)NCc4ccccc4)c(C)c3cc12 |  | inactive: -7.59% [at 46.1 µM]
CCOC(=O)C1CCN(S(=O)(=O)c2ccc(NC(=O)c3ccco3)cc2)CC1 | inconclusive: 11.2 µM [inhibitor, partial curve, poor fit] | 
O=C(Nc1ccccc1Cl)c1ccccc1Oc1ccc(C(F)(F)F)cc1[N+](=O)[O-] | inconclusive: 35.5 µM [inhibitor, single point] | 
Cc1c(Br)c([N+](=O)[O-])nn1CC(=O)Nc1ccc(Cc2ccncc2)cc1 | inconclusive: 20.6 µM [inhibitor, partial curve, poor fit] | 
Cc1nn2cc(-c3ccc(Cl)cc3)nc2s1 | inconclusive: 18.3 µM [inhibitor, single point] | 
COc1ccc(-c2c(C)nn3c(N4CCC5(CC4)OCCO5)cc(C)nc23)cc1OC | inconclusive: 25.9 µM [inhibitor, single point] | 
CCc1ccc(NC(=O)c2ccc(F)c(S(=O)(=O)NC3CCCCCC3)c2)cc1 | inconclusive: 7.08 µM [inhibitor, partial curve, poor fit] | 
CC(=O)c1c(C)[nH]c(C(=O)OCCCCN2C(=O)c3ccccc3C2=O)c1C | inconclusive: 25.9 µM [inhibitor, single point] | 
O=C(COc1ccccc1)Nc1ccc(S(=O)(=O)N2CCCCCC2)cc1 | inconclusive: 1.16 µM [activator, single point] | 
CCCCn1c(SCC(=O)NCc2ccco2)nc2ccc(N3CCOCC3)cc2c1=O |  | inactive: -19.3%
CCc1ccc(/C=C/C(=O)C2C(=O)c3ccccc3C2=O)cc1 | active: 2.31 µM | 

Compound | Potency | activity change, negative = inhibition
COc1ccc(-c2csc3ncn(-c4ccc(C)cc4)c(=O)c23)cc1OC | inconclusive: 0.794 µM [inhibitor, single point] | 
CC(c1ccon1)N(C)Cc1cn(C)nc1-c1cccc(Cl)c1 (stereo unspecified) |  | inactive: -1.35%
COc1ccc(Br)cc1/C=C/C(=O)Nc1ccc(C)cc1 | inconclusive: 35.5 µM [inhibitor, single point] | 
CN1CCN(C(=O)c2ccc3c(c2)N(Cc2cccc(Cl)c2)C(=O)c2ccccc2S3(=O)=O)CC1 | inconclusive: 6.31 µM [inhibitor, single point] | 
Cc1ccc(C(=O)Nc2cc([N+](=O)[O-])ccc2F)s1 | inconclusive: 25.1 µM [activator, single point] | 
C(=N\c1nc2ccccc2n1CCN1CCCCC1)/c1cccs1 | inconclusive: 15.8 µM [activator, partial curve, poor fit] | 
CCOc1ccc(CCNc2cc(C)nc3ncnn23)cc1OCC |  | inactive: 6.03%
O=C(C1=C(O)C(=O)N(CCN2CCOCC2)C1c1cccc([N+](=O)[O-])c1)c1cccs1 (stereo unspecified) | inconclusive: 5.62 µM [activator, partial curve, poor fit] | 
Cc1cccc(Nc2ccc(C(=O)N3CCOCC3)cn2)c1 | inconclusive: 22.4 µM [inhibitor, single point] | 
N#CC(C(=O)Nc1cccc(Cl)c1)=C1Nc2ccccc2N1 |  | inactive: 3.13%
COc1ccc(C/C(C)=N/NC(=S)Nc2ccccc2F)cc1 | inconclusive: 11.2 µM [inhibitor, partial curve, poor fit] | 
COC(=O)C(C)(N)Cc1ccc(O)cc1 (stereo unspecified) | inconclusive: 2.06 µM [activator, partial curve, poor fit] | 
O=c1c2sc3ccccc3c2n(Cc2ccccc2Cl)c(=O)n1Cc1ccccc1 | inconclusive: 35.5 µM [inhibitor, single point] | 
Cc1ccc(NC(=O)c2cccnc2C(=O)O)nc1 | inconclusive: 7.08 µM [activator, partial curve, poor fit] | 
COc1ccc(N(C(=O)c2snc(C(N)=O)c2N)C(C(=O)NCc2ccc(F)cc2)c2ccc(C)o2)c(OC)c1 (stereo unspecified) | active: 8.91 µM | 
O=C(NCc1cccnc1)c1cc(Sc2ccc(F)cc2F)nc2ccccc12 | inconclusive: 35.5 µM [inhibitor, single point] | 
CCOc1cccc(/C=N/N2C(=O)CSC2=S)c1O | inconclusive: 10 µM [inhibitor, partial curve, poor fit] | 
COc1ccccc1C(=O)Nc1ccc(NC(=O)c2ccco2)cn1 |  | inactive: 21.8%
Cc1c(Nc2nc3ccccc3nc2NS(=O)(=O)c2cccc(Cl)c2)c(=O)n(-c2ccccc2)n1C | inconclusive: 35.5 µM [activator, partial curve, poor fit] | 
O=C(O)c1ccccc1OC(=O)C12CC3CC(CC(C3)C1)C2 | inconclusive: 0.631 µM [inhibitor, partial curve, poor fit] | 
COc1ccc(C(=O)N(Cc2ccc(N(C)C)cc2)Cc2ccco2)cc1Cl | inconclusive: 10 µM [inhibitor, partial curve] | 
O=C(NC(=S)NCCc1ccccn1)c1ccco1 |  | inactive: 22.1% [at 46.1 µM]

Compound | Potency | activity change, negative = inhibition
CCOC(=O)c1cccc(NC(=O)Cn2c(CC(=O)NC)nc3ccccc32)c1 | inconclusive: 29.1 µM [inhibitor, single point] | 
CCOC(=O)c1cnc2c(C)cc(C)cc2c1NCCc1ccc(OC)c(OC)c1 |  | inactive: 15.9% [at 46.1 µM]
Cc1ccc(C)c(C(=O)COc2ccc(C)nc2[N+](=O)[O-])c1 |  | inactive: 8.13%
Cc1ccc(-n2nc3c(c2NC(=O)c2ccc(S(=O)(=O)N4CCOCC4)cc2)CSC3)c(C)c1 | inconclusive: 16.4 µM [inhibitor, partial curve, poor fit] | 
Oc1c(C(c2ccccn2)N2CCC(Cc3ccccc3)CC2)cc(Cl)c2cccnc12 (stereo unspecified) | inconclusive: 14.1 µM [inhibitor, partial curve, poor fit] | 
O=C(Nc1nc2ccsc2c(=O)s1)C1CCC1 | inconclusive: 14.1 µM [activator, single point] | 
CC(C)NC(=O)C1CCN(C2CCN(Cc3cn[nH]c3-c3ccccc3)CC2)CC1 |  | inactive: -11.5% [at 46.1 µM]
CCC1(C(=O)c2ccccc2)C2c3cc(Br)ccc3OC(=O)C21C(=O)N1CCOCC1 (stereo unspecified) |  | inactive: -16.9%
COc1ccc(CNC(=O)Cn2c(=O)oc3cc(S(=O)(=O)N4CCC(C)CC4)ccc32)cc1 | inconclusive: 7.08 µM [inhibitor, partial curve, poor fit] | 
COc1cccc(CNC(=O)CN2C(=O)CSc3c2c(C)nn3-c2ccccc2)c1OC |  | inactive: -25.7% [at 46.1 µM]
COc1ccc(OCCCNCCc2ccccc2)cc1 | inconclusive: 5.01 µM [inhibitor, full curve] | 
CS(=O)(=O)N1Cc2ccccc2CC1C(=O)OCC(=O)NCCc1ccc(S(N)(=O)=O)cc1 (stereo unspecified) | inconclusive: 6.31 µM [inhibitor, single point] | 
Cc1ccc(NC(=O)c2c3c(nc4ccccc24)CCC3)cc1 |  | inactive: -3.9%
O=S(=O)(Nc1cccc(-c2ccc(N3CCCCCC3)nn2)c1)c1ccc(F)cc1 | inactive and inconclusive: 35.5 µM [inhibitor, single point] | 
Cc1ccc(N(CC(=O)NCc2ccccn2)S(=O)(=O)c2ccccc2)cc1C | inconclusive: 1.78 µM [inhibitor, full curve, poor fit] | 
CCOC(=O)c1[nH]c(C)c(CCC(=O)Nc2ccc(C(C)=O)cc2)c1C |  | inactive: -6.19% [at 46.1 µM]
Cc1ccccc1NS(=O)(=O)c1nnc(NC(=O)c2ccc(Cl)cc2)s1 | inconclusive: 1.41 µM [activator, partial curve, poor fit] | 
CCN(CC)C(=O)Cn1cc(C(=O)C(=O)Nc2ccc3c(c2)OCCO3)c2ccccc21 | inconclusive: 35.5 µM [inhibitor, partial curve, poor fit] | 
CCOC(=O)c1cnc(SC)nc1Oc1cccc(NS(=O)(=O)c2ccc(C)cc2)c1 | inconclusive: 20.6 µM [inhibitor, partial curve, poor fit] | 
CC1OC(Oc2ccc3ccc(=O)oc3c2-c2c(O)ccc3cc(Oc4ccc5ccc(=O)oc5c4)c(=O)oc23)C(O)C(O)C1O (stereo unspecified) | inconclusive: 4.61 µM [activator, partial curve, poor fit] | 
COc1cccc(/C=C2\SC(=S)N(CCCC(=O)Nc3cc(C)on3)C2=O)c1 |  | inactive: -14.6% [at 46.1 µM]
COc1cc2c(cc1NC(=O)c1ccccc1F)CCCC2 | inconclusive: 0.517 µM [activator, full curve] | 
